Results taken from PubChem BioAssay AID2685 (National Center for Advancing Translational Sciences (NCATS), 2010).
The campaign covered roughly 320,000 compounds. About 2,100 (0.66%) were called active. Inconclusive means that the source gave no clear call. Such entries were picked first, then a sample of the others. The call rests on the fitted dose curve; in most records, active means well fitted inhibition curve with a large enough effect in the signal ratio, with a control signal flat (not every such curve was filed as active); inconclusive means small, poorly fitted or top-dose-only effect, or effect the other way, or a change in a side signal; inactive means flat fitted curve, though single readings scatter; the % refers to the signal ratio. Potencies of inconclusive entries are doubtful fits and often do not repeat.

Experiment: qHTS Assay for Lipid Storage Modulators in Drosophila S3 Cells
Conditions: BODIPY lipid droplet fluorescence, 18-24 h, cells fed with added oleic acid; lipid storage change, negative = inhibition: at 46.1 µM (top of the series) unless noted
Summary of the method: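 Laser-scanning cytometry quantifies lipid droplet accumulation (500–530 nm total intensity; droplet/cell object ratio) in oleic acid-fed (400 uM added) Drosophila S3 cells treated with a concentration series. 20 uM Triacsin C defined 100% inhibition.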
On the % scale 0 is the no-effect control and ±100 the full control effect; potency means the concentration at half of the fitted maximal effect.

Row | Compound | lipid storage change, negative = inhibition | Potency | outcome
1 | CCCOc1ccc(C(=O)Nc2cc(-c3nn4c(C)nnc4s3)ccc2C)cc1 | inconclusive: -3.47% [at 9.22 µM] | – | –
2 | Cc1nc(C(=O)N2CCCC(N3CCN(c4ccccc4C)CC3)C2)cs1 (centres undefined) | inconclusive: 15.9% | – | –
3 | OCCN(CCO)Cc1csc2ccccc12 | inconclusive: -0.255% | – | –
4 | CCOc1ccc(N(CC(=O)NCc2ccc(F)cc2)C(=O)c2snc(C(N)=O)c2N)cc1 | inconclusive: 11.8% | – | –
5 | Cc1nc2ccccc2c(=O)n1NCc1cc(Br)cs1 | – | inconclusive: 1.64 µM [activator, partial curve] | –
6 | Cn1c(=O)[nH]c(=O)c2c1nc(SCCCO)n2CCCc1ccccc1 | inconclusive: -22.3% | – | –
7 | O=C(/C=C/c1ccc2c(c1)OCO2)NCc1ccncc1 | inconclusive: 11.8% | – | –
8 | CCN1CCN(CC(=O)Nc2sc3c(c2C#N)CCC(C)C3)CC1 (centres undefined) | – | inconclusive: 29.1 µM [falling, single point] | –
9 | COc1ccc(NC2=C(C(C)=O)C(c3ccc4c(c3)OCO4)C(C(C)=O)C(C)(O)C2)cc1 (centres undefined) | inconclusive: 66.3% | – | –
10 | COC(=O)c1ccccc1NC(=O)Nc1cccnc1 | – | inconclusive: 0.13 µM [falling, full curve, poor fit] | –
11 | CSC1=N/C(=C\c2cccc(F)c2)C(=O)S1 | – | inconclusive: 29.1 µM [cytotoxic, single point] | –
12 | O=C(CSc1n[nH]c(-c2ccccn2)n1)Nc1ccc(Cl)cc1 | inconclusive: -180% | – | –
13 | COc1ccc(C)cc1N(CC(=O)N1CCCC1)S(C)(=O)=O | – | inconclusive: 18.4 µM [falling, partial curve, poor fit] | –
14 | O=C(c1ccc(=O)[nH]n1)N1CCN(S(=O)(=O)c2cccc(F)c2)CC1 | inconclusive | – | –
15 | Cc1cccc(NC(=O)CN2C(=O)S/C(=C\c3cc(C)n(C)c3C)C2=O)c1 | inconclusive: 21.1% | – | –
16 | Cc1cccc(N=C2NN=C(c3c[nH]c4ccccc34)CS2)c1 | – | inconclusive: 29.1 µM [cytotoxic, single point] | –
17 | COc1ccc(CCNC(=O)COC(=O)c2ccc(C)s2)cc1 | inconclusive: 3.54% | – | –
18 | O=C(COC(=O)c1ccccc1O)Nc1cccc2ccccc12 | – | inconclusive: 0.731 µM [activator, single point] | –
19 | CCn1c2ccc(F)cc2c2nnc(NN)nc21 | inconclusive: -13.7% | – | –
20 | CCc1ccc(C(CC(=O)c2ccc(Cl)cc2)C(=O)O)cc1 (centres undefined) | – | inconclusive: 0.0065 µM [activator, full curve, poor fit] | –
21 | Cc1cccc(NC(=O)CSc2nnc(CNC(=O)c3ccco3)o2)c1 | – | – | inactive [at 46.1 µM]
22 | BrC(=C\c1ccccc1)/C=N/N1CCN(c2ccccc2)CC1 | inconclusive: -39.9% | – | –
23 | Cc1cc(C(=O)OCC(=O)Nc2ccccc2C#N)c(C)o1 | inconclusive: 163% | – | –
24 | Cc1nnc(SCCc2ccccc2)[nH]c1=O | inconclusive: 52.5% | – | –
25 | CN(C)c1cccc(C(=O)OCC(=O)Nc2ccccc2-c2ccccc2)c1 | inconclusive: -17.3% | – | –
26 | O=C(CSc1nc2ccccc2[nH]1)c1cccs1 | inconclusive: 18.3% | – | –
27 | O=[N+]([O-])C(/C=C(\Cl)[N+](=O)[O-])=C(N1CCCCC1)N1CCCCC1 | inconclusive: 8.38% | – | –

Row | Compound | lipid storage change, negative = inhibition | Potency | outcome
28 | CCOc1ccccc1N1CC(C(=O)Nc2cc(S(C)(=O)=O)ccc2Cl)CC1=O (centres undefined) | inconclusive: 32.6% | – | –
29 | N#Cc1c(-c2ccco2)ccn(Cc2ccc(F)cc2)c1=O | inconclusive: 11.4% | – | –
30 | C/C(=N\NC(=O)CN1CCCCC1)c1ccccc1O | inconclusive: -46.5% | – | –
31 | Cc1ccc(-n2nc(C(=O)NCc3ccc(C)o3)c3c4ccccc4n(C)c3c2=O)cc1 | inconclusive: 6.24% | – | –
32 | COc1ccc(-c2cc(C(=O)N3CCN(c4cccc(C)c4C)CC3)c3ccccc3n2)cc1OC | – | inconclusive: 3.66 µM [activator, partial curve] | –
33 | CCc1sc(C(=O)N2CCN(c3ncccn3)CC2)cc1Br | inconclusive: -1.77% | – | –
34 | Cc1c(C(=O)N(Cc2ccco2)Cc2cccs2)oc2ccccc12 | inconclusive: -45.3% | – | –
35 | CC(OC(=O)C1CCCC1)C(=O)Nc1ccc(C(N)=O)cc1 (centres undefined) | inconclusive: 15.7% | – | –
36 | CCCCCSc1nnc(-c2ccccc2N)c(=O)[nH]1 | inconclusive: 10.6% | – | –
37 | COc1ccc2c(c1)OCC1=C2CCC2(C)C(=O)CC=C12 (centres undefined) | – | inconclusive: 13 µM [falling, partial curve, poor fit] | –
38 | COC(=O)Cc1ccc(NC(=S)NC(C)(C)C)cc1 | inconclusive: -35.6% [cytotoxic] [at 0.00295 µM] | – | –
39 | CC(=O)Nc1ccc(S(=O)(=O)NCc2nnnn2-c2ccc(Cl)cc2)cc1 | inconclusive: 40.2% | – | –
40 | COc1ccccc1C(=O)NCCC(=O)NCc1ccncc1 | inconclusive: 16.5% | – | –
41 | CCOC(=O)CN(Cc1ccccc1)S(=O)(=O)c1ccc(NC(C)=O)cc1 | – | inconclusive: 1.84 µM [activator, full curve, poor fit] | –
42 | Clc1ccc(OCCCN2CCCCC2)c(Br)c1 | inconclusive: -0.554% | – | –
43 | COc1ccc(Oc2ccc(C(F)(F)F)cc2NC(=O)c2ccc(C)cc2)cc1 | – | inconclusive: 0.0046 µM [activator, full curve, poor fit] | –
44 | Cc1cc(=O)c2ccccc2n1Cc1ccccc1 | inconclusive: -34% | – | –
45 | Cn1nc(C(F)(F)F)c(C#N)c1N1CCN(c2ccccc2F)CC1 | – | inconclusive: 9.2 µM [activator, partial curve] | –
46 | C#CCOC(=O)c1ccccc1C(=O)N(CC)CC | inconclusive: -21.6% | – | –
47 | COC(=O)Cn1cnc2c(cnn2-c2ccc(C)cc2)c1=O | inconclusive: 11% | – | –
48 | CC(=O)NCC1CCN(C(=O)C2CCC(=O)N(CCc3cccc(F)c3)C2)CC1 (centres undefined) | inconclusive: -4.42% | – | –
49 | CN(C)C1=NCCN1CCCC1CCCC1 | inconclusive: 10.6% | – | –
50 | COc1ccccc1N1CCN(C(=O)C(F)F)CC1 | inconclusive: -12.1% | – | –
51 | C/C(=C\c1ccccc1)CN1CCN(c2ccccc2)CC1 | inconclusive: -13.4% | – | –
52 | CCn1c(C)nnc1SCC(=O)Nc1nccs1 | – | inconclusive: 29.1 µM [activator, single point] | –
53 | COc1ccc(OCCCN2CCc3ccccc3C2)cc1 | – | inconclusive: 8.2 µM [activator, partial curve, poor fit] | –
54 | CCCCc1nc(NCc2ccccc2)c(C#N)c2c1COC(C)(C)C2 | inconclusive: 7.35% | – | –

Full records as entered above.
CCCCCSc1nnc(-c2ccccc2N)c(=O)[nH]1 is entered as lipid storage change, negative = inhibition: inconclusive: 10.6%
COc1ccc2c(c1)OCC1=C2CCC2(C)C(=O)CC=C12 (centres undefined) is entered as Potency: inconclusive: 13 µM [falling, partial curve, poor fit]

The list continues:

Row | Compound | lipid storage change, negative = inhibition | Potency | outcome
55 | CCOCCCNC(=O)C1CCCN1C(=O)NC1CCCCC1 (centres undefined) | – | active: 20.6 µM | –
56 | O=C(Nc1ccccc1C(=O)N1CCOCC1)c1noc2c1CCCC2 | inconclusive: -58.5% | – | –
57 | COc1ccc(/C=C2/SC(=O)N(CCNC(=O)C3CCCN3C(=O)c3cccs3)C2=O)cc1 (centres undefined) | – | active: 20.6 µM | –
58 | CCOC(=O)c1ccc(N2C(=O)C3ON(c4ccccc4)C(c4ccco4)C3C2=O)cc1 (centres undefined) | – | inconclusive: 0.013 µM [rising, full curve] | –
59 | CC(=O)c1ccc(S(=O)(=O)N2CCCCC2C(=O)O)cc1 (centres undefined) | – | inconclusive: 0.103 µM [falling, full curve, poor fit] | –
60 | CC(=O)C[C@H](O)CC(=O)[C@H]1OC(=O)CCCCCCCc2ccccc21 | – | inconclusive: 3.26 µM [activator, full curve] | –
61 | O=C(N/N=C/c1ccc(Cl)c([N+](=O)[O-])c1)c1cc(-c2ccc3c4c(cccc24)CC3)n[nH]1 | inconclusive: -34.1% | – | –
62 | O=C(NCCc1ccccc1Cl)C1CCC(=O)N(Cc2ccc(Cl)cc2)C1 (centres undefined) | – | inconclusive: 11.6 µM [falling, partial curve] | –
63 | CC1SCC(=O)N(CC(=O)Nc2ccc3c(c2)OCCO3)C1=O (centres undefined) | inconclusive: 5.61% | – | –
64 | CNc1nnc(CSc2nc(C)cc(C)n2)s1 | inconclusive: 26.1% | – | –
65 | COc1ccc(CCNC(=O)Cn2cccc2C(=O)c2ccccc2)cc1OC | – | active: 25.9 µM | –
66 | Cc1cc(C)cc(NC(=O)CCN2C(=O)c3ccccc3S2(=O)=O)c1 | inconclusive: -76.4% | – | –
67 | C=CCC1(CC=C)CCCN1C(=O)c1cc(COc2ccc(F)c(F)c2)on1 | inconclusive: -31.7% | – | –
68 | COc1cccc(NC(=O)N2CCN(c3nnnn3-c3ccccc3)CC2)c1 | inconclusive: 1.36% | – | –
69 | Cc1nc(C(=O)NC2CCCCC2)sc1C1(C)CC(c2cccc([N+](=O)[O-])c2)=NO1 (centres undefined) | inconclusive: 12.2% | – | –
70 | O=C(CN1c2cccc3cccc(c23)S1(=O)=O)Nc1ccccc1 | inconclusive: 77.7% | – | –
71 | CCCCCC(=O)Nc1cc(S(=O)(=O)N2CCCCC2)ccc1N1CCOCC1 | inactive: -20.9% | – | –
72 | CCCOC(=O)c1[nH]c2c(c1C)C(=O)CC(c1ccc(OC)c(OC)c1)C2 (centres undefined) | – | inconclusive: 1.03 µM [activator, full curve, poor fit] | –
73 | C/C(=N\NC(=O)C1CCCC1)c1ccc(C(C)C)cc1 | inconclusive: 188% | – | –
74 | O=C1C2CCCN2C(c2cccc(F)c2)N1c1cccc(Cl)c1 (centres undefined) | – | inconclusive: 1.16 µM [falling, full curve, poor fit] | –
75 | CCc1cc2c(CN3CCN(CC)CC3)cc(=O)oc2cc1O | inconclusive: 21.6% | – | –
76 | Cc1ccc(C(=O)c2sc3nsc(C)c3c2N)cc1 | – | inconclusive: 6.51 µM [activator, single point] | –
77 | COc1ccc(C(=S)NC2CCCCC2)cc1 | inconclusive: -14.5% | – | –
78 | N=C1/C(=C/c2ccc(OCc3ccccc3F)cc2)C(=O)N=C2SC(CC(=O)N3CCOCC3)=NN12 | – | inconclusive: 1.3 µM [activator, full curve, poor fit] | –
79 | Cc1ccc(C(=O)Nc2ccccc2C(=O)N2CC3(C)CC2CC(C)(C)C3)cc1 (centres undefined) | – | inconclusive: 10.3 µM [falling, partial curve, poor fit] | –

In the list so far, 2 have a CF3 group:
Row | Compound | lipid storage change, negative = inhibition | Potency | outcome
43 | COc1ccc(Oc2ccc(C(F)(F)F)cc2NC(=O)c2ccc(C)cc2)cc1 | – | inconclusive: 0.0046 µM [activator, full curve, poor fit] | –
45 | Cn1nc(C(F)(F)F)c(C#N)c1N1CCN(c2ccccc2F)CC1 | – | inconclusive: 9.2 µM [activator, partial curve] | –
